No constants are given. Whether binding was seen depends on the method and setting. Some binding calls cover weakened binding; strength is not graded here.
Target: recombinant human LRP-1 Cluster II Fc Chimera protein (R&D Systems) (human) (UniProt Q07954)
Assay: SPR (BIAcore T200), 10 nM fl-TFPI over LRP-1 Cluster II Fc

Amino acid sequences for entries named in this document (tags omitted). A change or cut given only in a name is not applied to a line headed by its entry. Residues count along the entry.
UniProt Q07954, residues 805-1184: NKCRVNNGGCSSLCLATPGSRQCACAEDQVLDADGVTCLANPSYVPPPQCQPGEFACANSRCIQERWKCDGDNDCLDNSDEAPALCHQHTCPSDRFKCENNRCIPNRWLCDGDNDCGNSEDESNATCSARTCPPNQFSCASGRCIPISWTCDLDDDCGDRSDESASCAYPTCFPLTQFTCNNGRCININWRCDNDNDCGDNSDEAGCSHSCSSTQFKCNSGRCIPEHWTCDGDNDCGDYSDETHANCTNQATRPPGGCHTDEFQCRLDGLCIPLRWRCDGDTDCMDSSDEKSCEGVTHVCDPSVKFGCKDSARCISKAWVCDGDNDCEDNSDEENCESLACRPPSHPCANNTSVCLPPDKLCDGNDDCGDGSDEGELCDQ
UniProt P10646, residues 29-304: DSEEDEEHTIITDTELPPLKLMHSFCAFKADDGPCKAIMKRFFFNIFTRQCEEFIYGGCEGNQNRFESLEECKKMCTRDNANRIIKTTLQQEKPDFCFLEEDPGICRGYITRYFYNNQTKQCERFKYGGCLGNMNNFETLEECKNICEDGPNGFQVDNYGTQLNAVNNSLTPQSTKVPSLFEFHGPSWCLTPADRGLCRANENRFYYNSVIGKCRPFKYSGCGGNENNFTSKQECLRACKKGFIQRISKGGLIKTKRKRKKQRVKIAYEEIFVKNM

binding: binds
Substance: full length human TFPI (from UniProt P10646 29-304)

From patent publication US20180155399A1
